Laboratory results as given in doi:10.1101/2025.03.28.646022.
Residue numbers refer to the chain shown, from its start. Like-named read-outs stand apart in the source and are kept apart here. No constants are given. Whether binding was seen depends on the method and setting. Binding seen in cells or lysates may run through a third protein. Some entries that bind do so weakly or less than the wild type. For some of these results: Sequences can lack the tags named with a protein.

Amino acid sequences for entries named in this document (tags omitted). A change or cut given only in a name is not applied to a line headed by its entry.
UniProt Q9UHD9, whole entry: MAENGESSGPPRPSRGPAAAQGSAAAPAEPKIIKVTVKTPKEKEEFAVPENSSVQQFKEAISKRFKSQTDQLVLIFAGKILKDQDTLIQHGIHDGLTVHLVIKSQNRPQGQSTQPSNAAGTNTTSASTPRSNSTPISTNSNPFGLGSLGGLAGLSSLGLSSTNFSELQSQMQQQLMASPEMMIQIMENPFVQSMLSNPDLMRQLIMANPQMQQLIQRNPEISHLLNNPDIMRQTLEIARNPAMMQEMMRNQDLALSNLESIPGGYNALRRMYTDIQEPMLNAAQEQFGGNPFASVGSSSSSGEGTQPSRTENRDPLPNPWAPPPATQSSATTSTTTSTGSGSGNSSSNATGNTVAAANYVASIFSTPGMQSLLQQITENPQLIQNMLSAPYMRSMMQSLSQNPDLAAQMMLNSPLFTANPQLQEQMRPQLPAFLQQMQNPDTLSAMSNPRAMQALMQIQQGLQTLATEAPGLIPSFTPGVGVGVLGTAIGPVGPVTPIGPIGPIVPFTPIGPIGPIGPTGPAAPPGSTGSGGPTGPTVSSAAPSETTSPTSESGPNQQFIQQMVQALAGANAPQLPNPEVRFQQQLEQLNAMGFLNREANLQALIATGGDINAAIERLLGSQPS
UniProt P55036, whole entry: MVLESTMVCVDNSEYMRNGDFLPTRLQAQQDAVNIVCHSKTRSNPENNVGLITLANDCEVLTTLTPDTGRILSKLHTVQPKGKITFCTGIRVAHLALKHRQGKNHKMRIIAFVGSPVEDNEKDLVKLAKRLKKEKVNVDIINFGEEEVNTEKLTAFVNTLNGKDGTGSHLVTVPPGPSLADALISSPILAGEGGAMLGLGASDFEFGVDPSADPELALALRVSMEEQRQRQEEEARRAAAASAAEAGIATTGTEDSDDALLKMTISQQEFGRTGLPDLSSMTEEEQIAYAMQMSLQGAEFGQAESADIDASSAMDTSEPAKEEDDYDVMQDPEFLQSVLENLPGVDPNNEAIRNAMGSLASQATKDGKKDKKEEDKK
UniProt Q05086, whole entry: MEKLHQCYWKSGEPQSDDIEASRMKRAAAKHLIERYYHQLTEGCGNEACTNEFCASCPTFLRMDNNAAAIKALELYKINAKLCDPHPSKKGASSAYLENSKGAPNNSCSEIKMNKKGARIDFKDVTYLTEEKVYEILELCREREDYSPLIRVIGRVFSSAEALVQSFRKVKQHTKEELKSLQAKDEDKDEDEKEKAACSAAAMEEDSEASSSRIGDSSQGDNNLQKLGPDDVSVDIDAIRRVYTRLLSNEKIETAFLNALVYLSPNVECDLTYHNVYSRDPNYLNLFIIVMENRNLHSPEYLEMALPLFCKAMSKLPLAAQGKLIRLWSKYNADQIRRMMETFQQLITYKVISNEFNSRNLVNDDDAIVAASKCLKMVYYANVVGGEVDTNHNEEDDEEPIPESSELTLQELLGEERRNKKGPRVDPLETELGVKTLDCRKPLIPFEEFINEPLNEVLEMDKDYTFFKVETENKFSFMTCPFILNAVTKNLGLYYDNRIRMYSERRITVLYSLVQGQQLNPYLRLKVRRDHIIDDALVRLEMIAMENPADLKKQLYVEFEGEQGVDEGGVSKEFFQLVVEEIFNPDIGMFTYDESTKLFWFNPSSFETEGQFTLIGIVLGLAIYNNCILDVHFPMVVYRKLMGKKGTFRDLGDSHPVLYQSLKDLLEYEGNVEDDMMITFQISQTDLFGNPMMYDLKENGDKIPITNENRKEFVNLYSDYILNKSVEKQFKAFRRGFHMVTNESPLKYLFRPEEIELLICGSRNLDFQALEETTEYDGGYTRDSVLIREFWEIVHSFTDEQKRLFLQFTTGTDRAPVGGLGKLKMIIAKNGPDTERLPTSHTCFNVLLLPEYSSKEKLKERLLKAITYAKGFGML

B1: PEG10 gag, endogenous (protein, UniProt Q86TG7-2 1-325)
chain: MTERRRDELSEEINNLREKVMKQSEENNNLQSQVQKLTEENTTLREQVEPTPEDEDDDIELRGAAAAAAPPPPIEEECPEDLPEKFDGNPDMLAPFMAQCQIFMEKSTRDFSVDRVRVCFVTSMMTGRAARWASAKLERSHYLMHNYPAFMMEMKHVFEDPQRREVAKRKIRRLRQGMGSVIDYSNAFQMIAQDLDWNEPALIDQYHEGLSDHIQEELSHLEVAKSLSALIGQCIHIERRLARAAAARKPRSPPRALVLPHIASHHQVDPTEPVGGARMRLTQEEKERRRKLNLCLYCGTGGHYADNCPAKASKSSPAGNSPAPL
B2: PEG10 gag-pol, endogenous (protein, UniProt Q86TG7 1-708)
chain: MTERRRDELSEEINNLREKVMKQSEENNNLQSQVQKLTEENTTLREQVEPTPEDEDDDIELRGAAAAAAPPPPIEEECPEDLPEKFDGNPDMLAPFMAQCQIFMEKSTRDFSVDRVRVCFVTSMMTGRAARWASAKLERSHYLMHNYPAFMMEMKHVFEDPQRREVAKRKIRRLRQGMGSVIDYSNAFQMIAQDLDWNEPALIDQYHEGLSDHIQEELSHLEVAKSLSALIGQCIHIERRLARAAAARKPRSPPRALVLPHIASHHQVDPTEPVGGARMRLTQEEKERRRKLNLCLYCGTGGHYADNCPAKASKSSPAGKLPGPAVEGPSATGPEIIRSPQDDASSPHLQVMLQIHLPGRHTLFVRAMIDSGASGNFIDHEYVAQNGIPLRIKDWPILVEAIDGRPIASGPVVHETHDLIVDLGDHREVLSFDVTQSPFFPVVLGVRWLSTHDPNITWSTRSIVFDSEYCRYHCRMYSPIPPSLPPPAPQPPLYYPVDGYRVYQPVRYYYVQNVYTPVDEHVYPDHRLVDPHIEMIPGAHSIPSGHVYSLSEPEMAALRDFVARNVKDGLITPTIAPNGAQVLQVKRGWKLQVSYDCRAPNNFTIQNQYPRLSIPNLEDQAHLATYTEFVPQIPGYQTYPTYAAYPTYPVGFAWYPVGRDGQGRSLYVPVMITWNPHWYRQPPVPQYPPPQPPPPPPPPPPPPSYSTL

Experiments:
Experiment in all cases: co-IP
[1] = target: Ubiquilin 2 (UBQLN2), endogenous (human (endogenous in HEK293)) (UniProt Q9UHD9)
[2] = target: T1, HA-tagged PEG10 gag-pol^K>R (K393/567/586/590R) (human) (UniProt Q86TG7)
T1 sequence: B2 chain with K393R, K567R, K586R, K590R

[3] = target: Ubiquilin 2 (UBQLN2), endogenous (human (endogenous in HEK293)) (UniProt Q9UHD9); remark: listed apart in the source
[4] = target: FLAG-UBQLN2 WT (AA 1-624) (human) (UniProt Q9UHD9)
[5] = target: FLAG-UBQLN2 ΔUBA (AA 1-580) (human) (UniProt Q9UHD9)
[6] = target: FLAG-UBQLN2 ΔUBL (AA 1-624 missing AA 33-107) (human) (UniProt Q9UHD9)
MYC-UBQLN2 (WT) (human) = MYC-UBQLN2 (WT) (human) (UniProt Q9UHD9)
[7] = target: Ubiquilin 2 (UBQLN2), endogenous (human (endogenous in HEK293)) (UniProt Q9UHD9); remark: listed apart in the source

Molecule | binding [1] | binding [3] | binding [4] | binding [5] | binding [6] | binding (MYC-UBQLN2 (WT) (human)) | binding [7] | other results
PSMD4 (also known as Rpn10), proteasome subunit, endogenous (from UniProt P55036 1-377) | binds |  |  |  |  |  |  | 
Ubiquilin 2 (UBQLN2), endogenous (from UniProt Q9UHD9 1-624) |  |  |  |  |  |  |  | binding [2]: binds
UBE3A (also known as E6AP), endogenous (from UniProt Q05086 1-875) (enzyme) | binds |  |  |  |  |  |  | 
FLAG-tagged UBE3A ΔAZUL (UBE3A^ΔAZUL), isoform 2, AA 60-853 (from UniProt Q05086-2 60-852) (domain or fragment) | binds |  |  |  |  |  |  | 
B1 |  | binds | binds | binds | binds | binds | binds | 
B2 |  | binds | binds | binds | binds | binds | binds | 
